The record followed here is paper PMC10661027, “Tuning Plant Promoters Using a Simple Split Luciferase Method to Assess Transcription Factor-DNA Interactions”.

Protein sequences, listed by entry. Tags and fused reporters are not part of them. Lines headed by an entry give the natural chain unless they say otherwise; changes in a name come on top.
UniProt Q9C5W9: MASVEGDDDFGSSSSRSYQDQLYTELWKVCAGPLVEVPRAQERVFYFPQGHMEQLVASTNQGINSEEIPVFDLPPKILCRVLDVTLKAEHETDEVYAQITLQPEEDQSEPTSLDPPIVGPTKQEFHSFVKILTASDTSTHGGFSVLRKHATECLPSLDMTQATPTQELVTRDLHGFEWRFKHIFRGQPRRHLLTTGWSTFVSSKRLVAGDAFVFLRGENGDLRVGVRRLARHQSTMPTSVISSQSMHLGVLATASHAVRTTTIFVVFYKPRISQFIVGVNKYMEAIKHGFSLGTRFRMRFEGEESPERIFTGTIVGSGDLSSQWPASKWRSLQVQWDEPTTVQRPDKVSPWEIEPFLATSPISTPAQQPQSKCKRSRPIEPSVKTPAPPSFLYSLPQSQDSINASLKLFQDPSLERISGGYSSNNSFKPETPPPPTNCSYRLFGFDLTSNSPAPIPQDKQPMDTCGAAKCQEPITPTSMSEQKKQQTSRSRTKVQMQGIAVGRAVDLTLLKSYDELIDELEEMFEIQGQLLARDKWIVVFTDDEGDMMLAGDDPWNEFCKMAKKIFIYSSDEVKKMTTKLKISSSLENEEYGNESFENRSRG

For at least one entry, the source does not settle the construct or the ends of the probe. For some of these results: A weaker result is weaker than the reference pair of the same experiment. For some of these results: At least one verdict rests on a figure or table, not on a statement of the authors. For some of these results: Where a protein sequence is shown, tags need not be part of it.

Data set [1] deals with ARF18:HiBiT (UniProt Q9C5W9). Put plainly: qTFD (HiBiT luminescence microplate, relative to rnd). Particulars: qTFD: 25 mM Tris-HCl pH 8.0, 100 mM KCl, 2 mM DTT, 1 mM EDTA, 0.1% BSA, 500 ng poly(dI-dC), 5% glycerol, 0.05% IGEPAL CA630, 1.5-50 nM protein, 1-3 h, room temperature; recombinant protein.
Data set [2] concerns the target T1, AtTGA1:HiBiT (Arabidopsis thaliana) (UniProt Q39237).
T1 sequence (looked up, limits assumed): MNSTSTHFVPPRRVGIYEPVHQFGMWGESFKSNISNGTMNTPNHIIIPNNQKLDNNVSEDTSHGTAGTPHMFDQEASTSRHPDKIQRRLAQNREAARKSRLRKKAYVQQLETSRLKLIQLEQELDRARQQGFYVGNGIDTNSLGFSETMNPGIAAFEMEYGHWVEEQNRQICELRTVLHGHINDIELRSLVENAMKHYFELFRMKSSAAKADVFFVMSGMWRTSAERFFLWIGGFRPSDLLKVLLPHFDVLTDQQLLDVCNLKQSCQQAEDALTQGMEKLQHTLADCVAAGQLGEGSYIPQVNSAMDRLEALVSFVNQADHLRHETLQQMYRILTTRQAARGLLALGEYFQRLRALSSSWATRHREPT
The data set is described as above. As to conditions: weak rQ; qTFD: 25 mM Tris-HCl pH 8.0, 100 mM KCl, 2 mM DTT, 1 mM EDTA, 0.1% BSA, 500 ng poly(dI-dC), 5% glycerol, 0.05% IGEPAL CA630, 1.5-50 nM protein, 1-3 h, room temperature; recombinant protein.

Data set [3] addresses T2, NLP6:HiBiT (UniProt Q8RWY4).
T2 sequence (looked up, limits assumed): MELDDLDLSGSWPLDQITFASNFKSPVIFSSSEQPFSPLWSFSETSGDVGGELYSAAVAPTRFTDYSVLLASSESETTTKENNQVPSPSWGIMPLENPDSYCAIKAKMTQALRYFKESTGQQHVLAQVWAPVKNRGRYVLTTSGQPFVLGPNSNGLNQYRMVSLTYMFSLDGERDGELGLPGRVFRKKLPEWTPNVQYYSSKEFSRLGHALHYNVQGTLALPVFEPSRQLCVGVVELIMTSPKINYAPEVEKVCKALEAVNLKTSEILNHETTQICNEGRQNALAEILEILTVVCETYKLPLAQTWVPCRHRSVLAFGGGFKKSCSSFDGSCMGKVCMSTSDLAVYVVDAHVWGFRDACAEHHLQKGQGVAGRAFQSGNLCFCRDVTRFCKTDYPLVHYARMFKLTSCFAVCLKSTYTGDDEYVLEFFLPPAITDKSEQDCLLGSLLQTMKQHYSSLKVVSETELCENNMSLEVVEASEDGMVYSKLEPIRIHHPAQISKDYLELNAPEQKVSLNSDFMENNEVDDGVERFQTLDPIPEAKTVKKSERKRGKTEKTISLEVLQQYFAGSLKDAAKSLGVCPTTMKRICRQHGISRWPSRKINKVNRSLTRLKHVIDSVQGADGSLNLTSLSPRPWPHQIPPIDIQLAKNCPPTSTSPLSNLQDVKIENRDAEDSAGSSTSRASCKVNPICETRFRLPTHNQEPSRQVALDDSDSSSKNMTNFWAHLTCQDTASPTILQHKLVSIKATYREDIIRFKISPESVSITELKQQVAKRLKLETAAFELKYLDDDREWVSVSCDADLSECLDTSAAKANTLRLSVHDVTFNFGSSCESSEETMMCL
The description is as above. Particulars: qTFD: 25 mM Tris-HCl pH 8.0, 100 mM KCl, 2 mM DTT, 1 mM EDTA, 0.1% BSA, 500 ng poly(dI-dC), 5% glycerol, 0.05% IGEPAL CA630, 1.5-50 nM protein, 1-3 h, room temperature; recombinant protein.

Data set [4] deals with T3, NLP7:HiBiT (UniProt Q84TH9).
T3 sequence (looked up, limits assumed): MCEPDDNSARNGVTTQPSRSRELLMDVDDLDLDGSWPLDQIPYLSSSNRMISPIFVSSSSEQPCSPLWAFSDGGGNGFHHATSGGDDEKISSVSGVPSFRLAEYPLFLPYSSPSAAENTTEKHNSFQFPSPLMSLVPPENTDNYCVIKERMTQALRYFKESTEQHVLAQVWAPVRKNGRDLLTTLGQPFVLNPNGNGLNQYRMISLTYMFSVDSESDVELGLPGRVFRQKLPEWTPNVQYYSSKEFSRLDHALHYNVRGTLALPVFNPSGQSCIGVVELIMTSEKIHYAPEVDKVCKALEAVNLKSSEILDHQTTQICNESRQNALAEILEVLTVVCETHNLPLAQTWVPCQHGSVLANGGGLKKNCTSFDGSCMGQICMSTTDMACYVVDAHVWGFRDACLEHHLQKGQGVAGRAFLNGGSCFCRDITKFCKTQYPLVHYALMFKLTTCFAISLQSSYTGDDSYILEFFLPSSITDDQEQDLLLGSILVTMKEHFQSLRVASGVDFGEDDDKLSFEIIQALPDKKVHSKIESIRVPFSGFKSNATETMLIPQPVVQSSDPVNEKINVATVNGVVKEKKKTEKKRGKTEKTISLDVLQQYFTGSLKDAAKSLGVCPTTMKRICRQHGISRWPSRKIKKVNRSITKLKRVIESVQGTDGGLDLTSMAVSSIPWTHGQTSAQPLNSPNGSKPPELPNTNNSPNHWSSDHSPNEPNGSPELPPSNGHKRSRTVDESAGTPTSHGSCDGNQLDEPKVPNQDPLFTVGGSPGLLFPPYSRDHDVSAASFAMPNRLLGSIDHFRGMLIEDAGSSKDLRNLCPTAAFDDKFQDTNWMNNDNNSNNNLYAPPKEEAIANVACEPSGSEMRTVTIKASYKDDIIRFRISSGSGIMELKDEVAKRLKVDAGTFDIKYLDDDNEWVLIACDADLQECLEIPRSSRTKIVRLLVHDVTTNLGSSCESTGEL
The description is as above. As to conditions: qTFD: 25 mM Tris-HCl pH 8.0, 100 mM KCl, 2 mM DTT, 1 mM EDTA, 0.1% BSA, 500 ng poly(dI-dC), 5% glycerol, 0.05% IGEPAL CA630, 1.5-50 nM protein, 1-3 h, room temperature; recombinant protein.

The target of data set [5] is T4, ANAC032:HiBiT (UniProt Q9CAR0).
T4 sequence (looked up, limits assumed): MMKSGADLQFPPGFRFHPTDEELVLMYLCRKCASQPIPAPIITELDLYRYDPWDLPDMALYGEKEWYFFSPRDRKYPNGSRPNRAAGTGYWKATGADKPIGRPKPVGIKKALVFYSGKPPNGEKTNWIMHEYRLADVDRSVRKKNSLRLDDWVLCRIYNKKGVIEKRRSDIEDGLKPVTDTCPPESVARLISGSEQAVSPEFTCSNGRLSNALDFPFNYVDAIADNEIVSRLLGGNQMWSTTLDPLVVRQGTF
Put plainly: qTFD (HiBiT luminescence microplate). Particulars: qTFD: 25 mM Tris-HCl pH 8.0, 100 mM KCl, 2 mM DTT, 1 mM EDTA, 0.1% BSA, 500 ng poly(dI-dC), 5% glycerol, 0.05% IGEPAL CA630, 1.5-50 nM protein, 1-3 h, room temperature; recombinant protein.

Data set [6] addresses ARF18:HiBiT (UniProt Q9C5W9). Kind of data set: qTFD (HiBiT luminescence microplate). As to conditions: qTFD: 25 mM Tris-HCl pH 8.0, 100 mM KCl, 2 mM DTT, 1 mM EDTA, 0.1% BSA, 500 ng poly(dI-dC), 5% glycerol, 0.05% IGEPAL CA630, 1.5-50 nM protein, 1-3 h, room temperature; recombinant protein.
Data set [7] has as its target T1, AtTGA1:HiBiT (Arabidopsis thaliana). Put plainly: qTFD (HiBiT luminescence microplate). As to conditions: reference for rQ normalisation; qTFD: 25 mM Tris-HCl pH 8.0, 100 mM KCl, 2 mM DTT, 1 mM EDTA, 0.1% BSA, 500 ng poly(dI-dC), 5% glycerol, 0.05% IGEPAL CA630, 1.5-50 nM protein, 1-3 h, room temperature; recombinant protein.
The target of data set [8] is T2, NLP6:HiBiT. Kind of data set: qTFD (HiBiT luminescence microplate). Particulars: qTFD: 25 mM Tris-HCl pH 8.0, 100 mM KCl, 2 mM DTT, 1 mM EDTA, 0.1% BSA, 500 ng poly(dI-dC), 5% glycerol, 0.05% IGEPAL CA630, 1.5-50 nM protein, 1-3 h, room temperature; recombinant protein.
Data set [9] deals with T3, NLP7:HiBiT. Kind of data set: qTFD (HiBiT luminescence microplate). As to conditions: qTFD: 25 mM Tris-HCl pH 8.0, 100 mM KCl, 2 mM DTT, 1 mM EDTA, 0.1% BSA, 500 ng poly(dI-dC), 5% glycerol, 0.05% IGEPAL CA630, 1.5-50 nM protein, 1-3 h, room temperature; recombinant protein.
For data set [10], the target named is T4, ANAC032:HiBiT. Put plainly: qTFD (HiBiT luminescence microplate, relative to rnd). As to conditions: qTFD: 25 mM Tris-HCl pH 8.0, 100 mM KCl, 2 mM DTT, 1 mM EDTA, 0.1% BSA, 500 ng poly(dI-dC), 5% glycerol, 0.05% IGEPAL CA630, 1.5-50 nM protein, 1-3 h, room temperature; recombinant protein.

For the sequence “CCTTTTGTCTCCCTTTTGTCTCCCTTTTGTCTCCCTTTTGTCTCCCTTTTGTCTCCCTTTTGTCTCCCTTTTGTCTC (double strand) [DR5(7X)]”, the binding result in the data set with ARF18:HiBiT [1] is on record as “binds”.
Turning to “TAGCGAAGTACGATCCCAACACGCACTTAGTGCCTAATTACGTCTTAATTTAATATTTTTTAAAGCGGCCATCACGCAGTA (double strand) [TFBS_12]”, the binding result in data set [2] was “binds more weakly”.
As to “TAGCGAAGTACGATCCCATCAAAGAGAAACAACTTGACCCTTTACATTGCTCAAGAGCTCATCTCTTCCCTCTACGGCCATCACGCAGTA (double strand) [NIR1]”, the binding result with NLP6:HiBiT [3] and in the data set with NLP7:HiBiT [4] was “binds” in each case.
For the sequence “TAGCGAAGTACGATCCCATGAAGACGCTGGGTTTACATGGGAATGGTGCTTCTGTTCTAACAGGCTAGGATATAAGGCCATCACGCAGTA (double strand) [Random (rnd)]”, the binding result (with ANAC032:HiBiT [5]; with ARF18:HiBiT [6]; in data set [7]; in the data set with NLP6:HiBiT [8]; with NLP7:HiBiT [9]) was “binds more weakly” in each case.
Regarding “TAGCGAAGTACGATCCCATGAAGACGGAGGTAAGCAAATTGATCACGCAACTGGTGGATATAAGGCCATCACGCAGTA (double strand) [ANAC032SO1]”, the binding result with ANAC032:HiBiT [10] is given as “binds”.
